Values quoted from earlier work, collected in patent publication US8420621B2, “Methods of using gamma cyclodextrin to control blood glucose and insulin secretion” (Abbott Laboratories, priority 2004, dated 2013).

Details: white or almost-white crystalline solid; cited from earlier work

## OC[C@H]1O[C@@H]2O[C@H]3[C@H](O)[C@@H](O)[C@@H](O[C@H]4[C@H](O)[C@@H](O)[C@@H](O[C@H]5[C@H](O)[C@@H](O)[C@@H](O[C@H]6[C@H](O)[C@@H](O)[C@@H](O[C@H]7[C@H](O)[C@@H](O)[C@@H](O[C@H]8[C@H](O)[C@@H](O)[C@@H](O[C@H]9[C@H](O)[C@@H](O)[C@@H](O[C@H]1[C@H](O)[C@H]2O)O[C@@H]9CO)O[C@@H]8CO)O[C@@H]7CO)O[C@@H]6CO)O[C@@H]5CO)O[C@@H]4CO)O[C@@H]3CO [Gamma-Cyclodextrin, Gamma-cyclodextrin]
  Solubility in water: freely soluble in water
